The source of these data is the supplement of paper PMC4604168 (melanoma cell lines).

The other results are listed elsewhere or left out. Single values are uncertain, as repeats are few or missing.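 The apoptosis fraction was the count of cleaved-PARP antibody-stained nuclei relative to all DNA-stained nuclei, imaged in 1,536-well plates. Screening doses were set so most cells survived, and baseline and induced cleaved-PARP levels vary greatly across cell lines.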

In the first assay the test system is MZ2-MEL. Description: cleaved PARP positive nuclei fraction relative to DMSO control; melanoma cells; higher = more apoptosis. The note with it: library dose: low library concentration; 72 h.
`Cc1cc(Nc2cc(N3CCN(C)CC3)nc(Sc3ccc(NC(=O)C4CC4)cc3)n2)n[nH]1` [Tozasertib] + C[C@@H](Oc1cc(-c2cnn(C3CCNCC3)c2)cnc1N)c1c(Cl)ccc(F)c1Cl [Crizotinib] (first compound 0.006 µM, partner dose 0.2 µM): the “cleaved PARP positive nuclei fraction” value came to 81.2%.

`O=C(Nc1cc(C(F)(F)F)cc(C(F)(F)F)c1)c1cc(Cl)ccc1O` + COCC[n+]1c2c(n(Cc3cnccn3)c1C)C(=O)c1ccccc1C2=O [YM155] (first compound 0.016 µM, partner dose 0.0004 µM): the “cleaved PARP positive nuclei fraction” value is 120%.

In the case of `O=c1[nH]nc(Sc2ncc([N+](=O)[O-])s2)n1-c1ccc2c(c1)OCCO2` + CCCCCCCCc1ccc(CCC(N)(CO)CO)cc1 [fingolimod] (first compound 0.2 µM, partner dose 2 µM), the “cleaved PARP positive nuclei fraction” value amounted to 94.3%.

The test system of another assay is MeWo. The description is as above. The note with it: library dose: low library concentration; 72 h.
As for `Cc1cn(-c2cc(NC(=O)c3ccc(C)c(Nc4nccc(-c5cccnc5)n4)c3)cc(C(F)(F)F)c2)cn1` [nilotinib] + NC(=O)c1ccc(N(C(N)=O)c2c(F)cccc2F)nc1-c1ccc(F)cc1F [VX702] (first compound 0.2 µM, partner dose 0.4 µM), the “cleaved PARP positive nuclei fraction” value amounted to 72.5%.

`CC[C@]1(O)C[C@H]2CN(CCc3c([nH]c4ccccc34)[C@@](C(=O)OC)(c3cc4c(cc3OC)N(C=O)[C@H]3[C@@](O)(C(=O)OC)[C@H](OC(C)=O)[C@]5(CC)C=CCN6CC[C@]43[C@@H]65)C2)C1` [vincristine] + C[C@@H](N)c1ccc(C(=O)Nc2ccnc3[nH]ccc23)cc1 [RKI983] (first compound 0.0001 µM, partner dose 0.4 µM): the “cleaved PARP positive nuclei fraction” value was found to be 3280%.

As to `Cc1cn(-c2cc(NC(=O)c3ccc(C)c(Nc4nccc(-c5cccnc5)n4)c3)cc(C(F)(F)F)c2)cn1` [nilotinib] + CC(C)C[C@H](NC(=O)[C@H](Cc1ccccc1)NC(=O)c1cnccn1)B(O)O [Bortezomib] (first compound 0.2 µM, partner dose 0.001 µM), the “cleaved PARP positive nuclei fraction” value was 69.9%.

Turning to `O=C(Nc1cc(C(F)(F)F)cc(C(F)(F)F)c1)c1cc(Cl)ccc1O` + CC(=O)c1c(C)c2cnc(Nc3ccc(N4CCNCC4)cn3)nc2n(C2CCCC2)c1=O [palbociclib] (first compound 0.016 µM, partner dose 0.04 µM), the “cleaved PARP positive nuclei fraction” value worked out at 84.3%.

`O=C(Nc1cc(C(F)(F)F)cc(C(F)(F)F)c1)c1cc(Cl)ccc1O` + OCc1c[nH]c2ccccc12 [Indole-3-carbinol] (first compound 0.016 µM, partner dose 0.8 µM): the “cleaved PARP positive nuclei fraction” value amounted to 119%.

As to `COc1cc([C@@H]2c3cc4c(cc3[C@@H](O[C@@H]3O[C@@H]5CO[C@@H](C)O[C@H]5[C@H](O)[C@H]3O)[C@H]3COC(=O)[C@H]23)OCO4)cc(OC)c1O` [etoposide] + CS(=O)(=O)CCNCc1ccc(-c2ccc3ncnc(Nc4ccc(OCc5cccc(F)c5)c(Cl)c4)c3c2)o1 [lapatinib] (first compound 0.02 µM, partner dose 0.8 µM), the “cleaved PARP positive nuclei fraction” value came out at 68.4%.

As for `CCCCCCCCCCCCCCCCCCOP(=O)([O-])OC1CC[N+](C)(C)CC1` [Perifosine] + NC1(c2ccc(-c3nc4ccn5c(=O)[nH]nc5c4cc3-c3ccccc3)cc2)CCC1 [MK2206] (first compound 0.4 µM, partner dose 0.4 µM), the “cleaved PARP positive nuclei fraction” value was 87.2%.

Take `N#CC[C@H](C1CCCC1)n1cc(-c2ncnc3[nH]ccc23)cn1` [ruxolitinib] + COc1ccc(Cl)c(Nc2nc3ccccc3nc2NS(=O)(=O)c2cccc(NC(=O)C(C)(C)N)c2)c1 [XL147] (first compound 1 µM, partner dose 0.8 µM): the “cleaved PARP positive nuclei fraction” value was found to be 102%.

As to `O=C(Nc1cc(C(F)(F)F)cc(C(F)(F)F)c1)c1cc(Cl)ccc1O` + COc1ccc(C2=N[C@@H](c3ccc(Cl)cc3)[C@@H](c3ccc(Cl)cc3)N2C(=O)N2CCNC(=O)C2)c(OC(C)C)c1 [Nutlin-3] (first compound 0.016 µM, partner dose 0.1 µM), the “cleaved PARP positive nuclei fraction” value is 89.1%.

Turning to `Cc1cc(Nc2cc(N3CCN(C)CC3)nc(Sc3ccc(NC(=O)C4CC4)cc3)n2)n[nH]1` [Tozasertib] + CC[C@]1(O)C[C@H]2CN(CCc3c([nH]c4ccccc34)[C@@](C(=O)OC)(c3cc4c(cc3OC)N(C=O)[C@H]3[C@@](O)(C(=O)OC)[C@H](OC(C)=O)[C@]5(CC)C=CCN6CC[C@]43[C@@H]65)C2)C1 [vincristine] (first compound 0.006 µM, partner dose 0.0001 µM), the “cleaved PARP positive nuclei fraction” value was 99.4%.
